{"sequences": {"note": "Amino acid sequences for entries named in this document (tags omitted). Residues count along the entry.", "UniProt P05067, 671-713": "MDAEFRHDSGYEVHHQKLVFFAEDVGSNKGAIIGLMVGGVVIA"}, "source": "patent US11536729B2", "about": "“Method of identifying novel protein aggregation inhibitors based on chemical kinetics” (Cambridge Enterprise Limited, priority 2016, dated 2022)", "target": "T1, Aβ42 (Homo sapiens, UniProt P05067)", "T1 construct": "The recombinant Aβ (M1-42) peptide; made in house; host or cells: E. coli BL21 Gold (DE3)", "assay": "ThT-based Aβ42 aggregation kinetics under quiescent (unseeded) conditions", "assay_type": "biochemical", "details": "for time within which Aβ42 aggregation was completely inhibited: 2 μM Aβ42, 3-fold excess", "description": "Solutions of monomeric peptides were prepared by dissolving the lyophilized Aβ42 peptide in 6 M GuHCl. Monomeric forms were purified from potential oligomeric species and salt using a Superdex 75 10/300 GL column (GE Healthcare) at a flowrate of 0.5 mL/min, and were eluted in 20 mM sodium phosphate buffer, pH 8 supplemented with 200 μM EDTA and 0.02% NaN3. The center of the peak was collected and the peptide concentration was determined from the absorbance of the integrated peak area using ε280=1400 l mol^−1 cm^−1. The obtained monomer was diluted with buffer to the desired concentration and supplemented with 20 μM Thioflavin T (ThT) from a 1 mM stock. All samples were prepared in low binding eppendorf tubes on ice using careful pipetting to avoid introduction of air bubbles. Each sample was then pipetted into multiple wells of a 96-well half-area, low-binding, clear bottom and PEG coating plate (Corning 3881), 80 μL per well.\nWe verified that the addition of 1% DMSO in the reaction mixture has no effect on Aβ42 aggregation.\nAssays were initiated by placing the 96-well plate at 37° C. under quiescent conditions in a plate reader (Fluostar Omega, Fluostar Optima or Fluostar Galaxy, BMGLabtech, Offenburg, Germany). The ThT fluorescence was measured through the bottom of the plate with a 440 nm excitation filter and a 480 nm emission filter. The ThT fluorescence was followed for three repeats of each sample.\nThe time evolution of the total fibril mass concentration, M(t), is described by the following integrated rate law (30, 32)\n(§1) [formula] where the kinetic parameters B±, C±, κ, κ∞ and ? are functions of the two ? combinations of the microscopic rate constants k+k2 and knk2, where kn, k+ and k2 are the primary nucleation, elongation and secondary nucleation rate constants, respectively.\nThe time evolution of the total fibril mass concentration, M(t), is described by the following integrated rate law\nas §1, with “two” for “two ?”, “respectively. Aβ42 alone in 1% DMSO was first modeled to obtain the k+k2 and knk2 combined microscopic rate constants.” for “respectively.”\nWith the introduction of different small molecules, the aggregation process can be inhibited by one or more individual microscopic reactions. Microscopic rate constants k+k2 and knk2 were obtained in the presence of the molecules, and compared to the initial values of Aβ42 alone. This comparison allows one to understand which rate was mainly perturbed, as well as the potency of the compounds (by relative changes of their microscopic rates) with respect to each other.", "note": "Some results were stated once for a whole list of compounds, not compound by compound. At least one compound was matched to its structure with a doubt left. Some compounds share one range, which may span the group rather than tell each member."}
{"smiles": "COc1ccc(-c2ccc3cc(C(=O)O)ccc3c2)cc1C12CC3CC(CC(C3)C1)C2", "note": "[Adapalene]", "values": [{"measurement": "delay of aggregation", "setting": "2 μM Aβ42, 0.5-fold excess", "value": "at least 3 fold"}, {"measurement": "time within which Aβ42 aggregation was completely inhibited", "value": "10 to 15", "unit": "h"}]}
{"smiles": "CC1(C)CC=C(C#Cc2ccccc2)c2cc(/C=C/c3ccc(C(=O)O)cc3)ccc21", "note": "[BMS493]", "values": [{"measurement": "time within which Aβ42 aggregation was completely inhibited", "value": "10 to 15", "unit": "h"}]}
{"smiles": "O=C(O)c1ccc(-c2ccc3cc(O)c(C45CC6CC(CC(C6)C4)C5)cc3c2)cc1", "note": "[CD1530]", "values": [{"measurement": "time within which Aβ42 aggregation was completely inhibited", "value": "10 to 15", "unit": "h"}]}
{"smiles": "CN1c2cc3c(cc2N=C(c2ccc(C(=O)O)cc2)c2ccccc21)C(C)(C)CCC3(C)C", "note": "[LE135]", "values": [{"measurement": "time within which Aβ42 aggregation was completely inhibited", "value": "10 to 15", "unit": "h"}]}
